# Results as given in the supplement of paper PMC8728848.
# This is one part of the list.
# B1: PX14351B-bth-512-36-512 (Bacteroides thetaiotaomicron) (protein)
# chain: ASETQQWKTLEDTRSALMGVYGLTRAALADNNTHWICGDLRKGDFTVYKRSDLQAVSDNELNKPYDLLKKVSNWRRFYAVINAASVFMEKAPRTVELDRSYSEQNLKYDIAQVRALRAFAYFYMVRIWGDVPLVTYSYDNGTFPSMPRTDAQTVLSYAKAELLTAIEDLPYQYGTQTNLYYGSYGAQWQGKLFNKLSAYSVLAHICAWQGNYAEAETYSAFIIDHASEINAKYTSIADLTSETGLFYSNASVKGSRILGFNFAHNDNEATQSGHLEQLTLAYPLVQKSYPEIYISKDSLFSIFTNFDDLRFGIIDTIKYSSYYVQNLNEETPVFSKIKIIQDGSAKDNDFGVFGSSIVFTRLEDITLLRAEALCALNRSTEAVSYLNMIRTNRGLREVSFKKDFGNNRESLIAEIFEERRRELMGEGWRWYDLVRRQKLMKDNEAFLRLISSGGIYWPVSEDIITANSQIEQNEFWK
# Legend:
# Assay in all cases: glycan array binding signal (z-score within array); higher = stronger binding
# Settings in all cases: glycan notation: IUPAC condensed, linker removed
# [1] = molecular target: Fuc(a1-2)Gal(b1-4)[Fuc(a1-3)]GlcNAc(b1-2)[Fuc(a1-2)Gal(b1-4)[Fuc(a1-3)]GlcNAc(b1-4)]Man(a1-3)[Fuc(a1-2)Gal(b1-4)[Fuc(a1-3)]GlcNAc(b1-2)Man(a1-6)]Man(b1-4)GlcNAc(b1-4)GlcNAc
# In short: (§1)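 The binding signal is a Z-score computed within each array and averaged over linkers. Arrays of the same protein sequence at different concentrations or buffers were also averaged together. Data originate from 3228 arrays in the Consortium for Functional Glycomics database, kept only where the protein sequence was available.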
# [2] = molecular target: Fuc(a1-2)Gal(b1-4)[Fuc(a1-3)]GlcNAc(b1-3)Gal(b1-4)[Fuc(a1-3)]GlcNAc
# In short: as §1
# [3] = molecular target: Fuc(a1-2)Gal(b1-4)[Fuc(a1-3)]GlcNAc(b1-3)Gal(b1-4)[Fuc(a1-3)]GlcNAc(b1-3)Gal(b1-4)[Fuc(a1-3)]GlcNAc
# In short: as §1
# [4] = molecular target: Fuc(a1-2)Gal(b1-4)[Fuc(a1-3)]GlcNAc(b1-3)GalNAc
# In short: as §1
# [5] = molecular target: Fuc(a1-2)Gal3S(b1-4)GlcNAc
# In short: as §1
# [6] = molecular target: Fuc(a1-2)Gal6S(b1-3)GlcNAc
# In short: as §1
# [7] = molecular target: Fuc(a1-2)Gal6S(b1-3)GlcNAc6S
# In short: as §1
# Fuc(a1-2)Gal6S(b1-4)Glc = molecular target: Fuc(a1-2)Gal6S(b1-4)Glc
# In short: as §1
# Fuc(a1-2)[Gal(a1-3)]Gal = molecular target: Fuc(a1-2)[Gal(a1-3)]Gal
# In short: as §1
# [8] = molecular target: Fuc(a1-2)[Gal(a1-3)]Gal(b1-3)GalNAc
# In short: as §1
# [9] = molecular target: Fuc(a1-2)[Gal(a1-3)]Gal(b1-3)GalNAc(b1-3)Gal(a1-4)Gal(b1-4)Glc
# In short: as §1
# [10] = molecular target: Fuc(a1-2)[Gal(a1-3)]Gal(b1-3)GlcNAc
# In short: as §1
# [11] = molecular target: Fuc(a1-2)[Gal(a1-3)]Gal(b1-3)GlcNAc(b1-2)Man(a1-3)[Fuc(a1-2)[Gal(a1-3)]Gal(b1-3)GlcNAc(b1-2)Man(a1-6)]Man(b1-4)GlcNAc(b1-4)GlcNAc
# In short: as §1
# [12] = molecular target: Fuc(a1-2)[Gal(a1-3)]Gal(b1-3)GlcNAc(b1-2)Man(a1-3)[Fuc(a1-2)[Gal(a1-3)]Gal(b1-3)GlcNAc(b1-2)Man(a1-6)]Man(b1-4)GlcNAc(b1-4)[Fuc(a1-6)]GlcNAc
# In short: as §1
# [13] = molecular target: Fuc(a1-2)[Gal(a1-3)]Gal(b1-3)GlcNAc(b1-3)GalNAc
# In short: as §1
# [14] = molecular target: Fuc(a1-2)[Gal(a1-3)]Gal(b1-3)GlcNAc(b1-6)GalNAc
# In short: as §1
# [15] = molecular target: Fuc(a1-2)[Gal(a1-3)]Gal(b1-4)Glc
# In short: as §1
# [16] = molecular target: Fuc(a1-2)[Gal(a1-3)]Gal(b1-4)GlcNAc
# In short: as §1
# [17] = molecular target: Fuc(a1-2)[Gal(a1-3)]Gal(b1-4)GlcNAc(b1-2)Man
# In short: as §1
# [18] = molecular target: Fuc(a1-2)[Gal(a1-3)]Gal(b1-4)GlcNAc(b1-2)Man(a1-3)[Fuc(a1-2)[Gal(a1-3)]Gal(b1-4)GlcNAc(b1-2)Man(a1-6)]Man(b1-4)GlcNAc(b1-4)GlcNAc
# In short: as §1
# [19] = molecular target: Fuc(a1-2)[Gal(a1-3)]Gal(b1-4)GlcNAc(b1-2)Man(a1-3)[Fuc(a1-2)[Gal(a1-3)]Gal(b1-4)GlcNAc(b1-2)Man(a1-6)]Man(b1-4)GlcNAc(b1-4)[Fuc(a1-6)]GlcNAc
# In short: as §1
# [20] = molecular target: Fuc(a1-2)[Gal(a1-3)]Gal(b1-4)GlcNAc(b1-3)GalNAc
# In short: as §1
# [21] = molecular target: Fuc(a1-2)[Gal(a1-3)]Gal(b1-4)GlcNAc(b1-3)[Fuc(a1-2)[Gal(a1-3)]Gal(b1-4)GlcNAc(b1-6)]GalNAc
# In short: as §1
# [22] = molecular target: Fuc(a1-2)[Gal(a1-3)]Gal(b1-4)GlcNAc(b1-6)GalNAc
# In short: as §1
# [23] = molecular target: Fuc(a1-2)[Gal(a1-3)]Gal(b1-4)[Fuc(a1-3)]Glc
# In short: as §1
# [24] = molecular target: Fuc(a1-2)[Gal(a1-3)]Gal(b1-4)[Fuc(a1-3)]GlcNAc
# In short: as §1
# [25] = molecular target: Fuc(a1-2)[Gal(a1-3)]Gal(b1-4)[Fuc(a1-3)]GlcNAc(b1-3)GalNAc
# In short: as §1
# [26] = molecular target: Fuc(a1-2)[Gal(a1-4)]Gal(b1-4)GlcNAc
# In short: as §1
# [27] = molecular target: Fuc(a1-2)[GalNAc(a1-3)]Gal
# In short: as §1
# [28] = molecular target: Fuc(a1-2)[GalNAc(a1-3)]Gal(b1-3)GalNAc(a1-3)[Fuc(a1-2)]Gal(b1-4)GlcNAc
# In short: as §1
# [29] = molecular target: Fuc(a1-2)[GalNAc(a1-3)]Gal(b1-3)GalNAc(b1-3)Gal(a1-4)Gal(b1-4)Glc
# In short: as §1
# [30] = molecular target: Fuc(a1-2)[GalNAc(a1-3)]Gal(b1-3)GlcNAc
# In short: as §1
# [31] = molecular target: Fuc(a1-2)[GalNAc(a1-3)]Gal(b1-3)GlcNAc(b1-2)Man(a1-3)[Fuc(a1-2)[GalNAc(a1-3)]Gal(b1-3)GlcNAc(b1-2)Man(a1-6)]Man(b1-4)GlcNAc(b1-4)GlcNAc
# In short: as §1
# [32] = molecular target: Fuc(a1-2)[GalNAc(a1-3)]Gal(b1-3)GlcNAc(b1-2)Man(a1-3)[Fuc(a1-2)[GalNAc(a1-3)]Gal(b1-3)GlcNAc(b1-2)Man(a1-6)]Man(b1-4)GlcNAc(b1-4)[Fuc(a1-6)]GlcNAc
# In short: as §1
# [33] = molecular target: Fuc(a1-2)[GalNAc(a1-3)]Gal(b1-3)GlcNAc(b1-3)GalNAc
# In short: as §1
# [34] = molecular target: Fuc(a1-2)[GalNAc(a1-3)]Gal(b1-3)GlcNAc(b1-6)GalNAc
# In short: as §1
# [35] = molecular target: Fuc(a1-2)[GalNAc(a1-3)]Gal(b1-4)Glc
# In short: as §1
# [36] = molecular target: Fuc(a1-2)[GalNAc(a1-3)]Gal(b1-4)GlcNAc
# In short: as §1
binder,measurement,setting,value
B1,glycan array binding signal (z-score),[1],-0.158
same,glycan array binding signal (z-score),[2],-0.277
same,glycan array binding signal (z-score),[3],-0.24
same,glycan array binding signal (z-score),[4],0.881
same,glycan array binding signal (z-score),[5],-0.247
same,glycan array binding signal (z-score),[6],-0.119
same,glycan array binding signal (z-score),[7],-0.199
same,glycan array binding signal (z-score),Fuc(a1-2)Gal6S(b1-4)Glc,0.03
same,glycan array binding signal (z-score),Fuc(a1-2)[Gal(a1-3)]Gal,0.049
same,glycan array binding signal (z-score),[8],-0.199
same,glycan array binding signal (z-score),[9],-0.255
same,glycan array binding signal (z-score),[10],-0.3
same,glycan array binding signal (z-score),[11],-0.082
same,glycan array binding signal (z-score),[12],-0.191
same,glycan array binding signal (z-score),[13],-0.353
same,glycan array binding signal (z-score),[14],0.184
same,glycan array binding signal (z-score),[15],0.071
same,glycan array binding signal (z-score),[16],-0.132
same,glycan array binding signal (z-score),[17],-0.08
same,glycan array binding signal (z-score),[18],1.1
same,glycan array binding signal (z-score),[19],0.011
same,glycan array binding signal (z-score),[20],-0.323
same,glycan array binding signal (z-score),[21],-0.265
same,glycan array binding signal (z-score),[22],-0.127
same,glycan array binding signal (z-score),[23],-0.106
same,glycan array binding signal (z-score),[24],-0.209
same,glycan array binding signal (z-score),[25],-0.22
same,glycan array binding signal (z-score),[26],0.298
same,glycan array binding signal (z-score),[27],-0.2
same,glycan array binding signal (z-score),[28],-0.095
same,glycan array binding signal (z-score),[29],-0.339
same,glycan array binding signal (z-score),[30],-0.152
same,glycan array binding signal (z-score),[31],-0.016
same,glycan array binding signal (z-score),[32],-0.383
same,glycan array binding signal (z-score),[33],-0.281
same,glycan array binding signal (z-score),[34],-0.144
same,glycan array binding signal (z-score),[35],-0.178
same,glycan array binding signal (z-score),[36],-0.349

# 2 entries drawn at random from those above:
binder,measurement,setting,value
B1,glycan array binding signal (z-score),[3],-0.24
same,glycan array binding signal (z-score),[9],-0.255
